From the supplement of paper PMC11348887
Counter-ions that a name gives are not always drawn. Some of the results follow. Small differences around the control level are noise.

Experiments:
Details in all cases: 5 µM; treatment: days 7-14 after plating, readout day 21
[1] = tested on: hPSC-derived cortical neurons (WA09); experiment: nucleus area z-score vs screen plate; higher = larger nuclei (more mature)
[2] = tested on: hPSC-derived cortical neurons (WA09); experiment: total neurite length per nucleus (MAP2) z-score; higher = more neurite growth
[3] = tested on: hPSC-derived cortical neurons (WA09); experiment: nucleus roundness z-score vs screen plate; higher = rounder nuclei (more mature)
[4] = tested on: hPSC-derived cortical neurons (WA09); experiment: KCl-induced FOS+/EGR-1+ double-positive nuclei fraction z-score (KCl minus unstimulated); higher = stronger activity-induced IEG response

## CC(C)(OCc1nn(Cc2ccccc2)c2ccccc12)C(=O)O [Bindarit]
[1]
  nucleus area z-score: 0.133
[2]
  total neurite length per nucleus (z-score): -0.666
[3]
  nucleus roundness z-score: -0.537
[4]
  KCl-induced FOS+/EGR-1+ double-positive nuclei fraction z-score: 0.47

## CC(C)C[C@H](NC(=O)[C@@H](NC(=O)c1cccc(-c2ccccc2)n1)[C@@H](C)O)B(O)O
[1]
  nucleus area z-score: -7.26
[2]
  total neurite length per nucleus (z-score): -2.91
[3]
  nucleus roundness z-score: -1.03
[4]
  KCl-induced FOS+/EGR-1+ double-positive nuclei fraction z-score: -0.214

## Clc1ccccc1CN1CCc2sccc2C1 [Ticlopidine HCl]
[1]
  nucleus area z-score: -0.33
[2]
  total neurite length per nucleus (z-score): 0.174
[3]
  nucleus roundness z-score: 0.595
[4]
  KCl-induced FOS+/EGR-1+ double-positive nuclei fraction z-score: 0.215

## c1ccc2[nH]c(-c3cscn3)nc2c1 [Thiabendazole]
[1]
  nucleus area z-score: 0.329
[2]
  total neurite length per nucleus (z-score): -0.299
[3]
  nucleus roundness z-score: -1.81
[4]
  KCl-induced FOS+/EGR-1+ double-positive nuclei fraction z-score: -0.491

## CCN1CCCC1CNC(=O)c1cc(S(=O)(=O)CC)c(N)cc1OC (centres undefined) [Amisulpride]
[1]
  nucleus area z-score: 1.06
[2]
  total neurite length per nucleus (z-score): 3.9
[3]
  nucleus roundness z-score: 0.333
[4]
  KCl-induced FOS+/EGR-1+ double-positive nuclei fraction z-score: -0.154

## Cc1c(Cc2ccc3ccccc3n2)c2cc(F)ccc2n1CC(=O)O
[1]
  nucleus area z-score: 0.3
[2]
  total neurite length per nucleus (z-score): 0.833
[3]
  nucleus roundness z-score: 1.21
[4]
  KCl-induced FOS+/EGR-1+ double-positive nuclei fraction z-score: 0.306

## N=C(N)NC(=O)c1nc(Cl)c(N)nc1N [Amiloride HCl dihydrate]
[1]
  nucleus area z-score: 0.0926
[2]
  total neurite length per nucleus (z-score): 2.81
[3]
  nucleus roundness z-score: -0.531
[4]
  KCl-induced FOS+/EGR-1+ double-positive nuclei fraction z-score: -0.0351

## C[N+](C)(C)CC(O)CC(=O)[O-] (racemic) [DL-Carnitine HCl]
[1]
  nucleus area z-score: -0.537
[2]
  total neurite length per nucleus (z-score): 0.169
[3]
  nucleus roundness z-score: 0.22
[4]
  KCl-induced FOS+/EGR-1+ double-positive nuclei fraction z-score: 0.129

## CO[C@@H](C(=O)N1Cc2[nH]nc(NC(=O)c3ccc(N4CCN(C)CC4)cc3)c2C1)c1ccccc1
[1]
  nucleus area z-score: 0.254
[2]
  total neurite length per nucleus (z-score): -0.00667
[3]
  nucleus roundness z-score: -0.768
[4]
  KCl-induced FOS+/EGR-1+ double-positive nuclei fraction z-score: -0.569

## OC(c1cc(C(F)(F)F)nc2c(C(F)(F)F)cccc12)C1CCCCN1 (centres undefined) [Mefloquine HCl]
[1]
  nucleus area z-score: 2.46
[2]
  total neurite length per nucleus (z-score): -3.17
[3]
  nucleus roundness z-score: -5.89
[4]
  KCl-induced FOS+/EGR-1+ double-positive nuclei fraction z-score: -7.14

## CCN(CC)CC(=O)Nc1c(C)cccc1C [Lidocaine]
[1]
  nucleus area z-score: 1.13
[2]
  total neurite length per nucleus (z-score): -0.641
[3]
  nucleus roundness z-score: -0.271
[4]
  KCl-induced FOS+/EGR-1+ double-positive nuclei fraction z-score: 0.907
